# Record: PubChem BioAssay AID652243 (Drosophila RNAi Screening Center, 2013)
# Aim: 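Fly genes required for human androgen receptor driven transcription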 (primary screen)
# Cell system: Drosophila S2R+ cells
# Knock-down reagent: long dsRNA against Drosophila genes
# Duration: 72 h (48 h, then 24 h hormone)
# Conditions: synthetic androgen R1881 at 10 nM for 24 h
# Measured: 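Per-well raw luminescence of the androgen-driven firefly reporter and of the Renilla control, two replicates each, without normalisation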
# Reading the numbers: firefly reporter light: higher = more light from androgen-responsive reporter; Renilla control light: higher = more constitutive control signal (cell number, transfection)
# Active means: 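Across duplicate plates, a knock-down whose log firefly/Renilla ratio shifted a set fold down or up from the GFP/LacZ control mean was a hit; the downward cut appears as both 1.5 and 3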
# Meaning of the calls: active = hit: reporter lowered or raised; inactive = no hit
# The screen tested about 24,000 reagents; this is a random part of those with a known target gene and a result. Of all reagents, 246 (1%) are marked active. 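Plates not normalised; calls are printed but the firefly/Renilla ratio behind them is not deposited; fold cut for lowering reported inconsistently.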 The raw values are shown without normalisation. The numbers tell different reagents against one gene apart. The record does not give: the amount of reagent.
target,dsRNA no.,"firefly reporter light, replicate 1","firefly reporter light, replicate 2","Renilla control light, replicate 1","Renilla control light, replicate 2",Outcome
Aasdh,1,1.23e5,1.72e5,1.05e6,1.11e6,inactive
CG8060,1,1.18e6,6.67e5,2.83e6,1.91e6,inactive
CG12620,1,2.27e5,2.13e5,1.83e6,2.41e6,inactive
CG12620,2,7.90e5,1.16e6,8.92e5,1.01e6,inactive
CG14851,1,1.45e5,1.98e5,2.00e6,1.88e6,inactive
CG14851,2,9.30e5,8.28e5,1.31e6,1.94e6,inactive
CG14851,3,3.88e5,4.96e5,3.93e5,7.63e5,inactive
PGAP2,1,6.17e5,7.85e5,1.84e6,1.23e6,inactive
PGAP2,2,3.15e5,6.03e5,7.06e5,1.57e6,inactive
rdgBbeta,1,1.13e5,91202,2.86e6,2.86e6,inactive
Polr3H,1,2.79e5,2.12e5,2.96e6,2.29e6,inactive
Oga,1,65602,72859,6.12e5,6.07e5,inactive
Vps20,1,1.52e5,1.52e5,1.61e6,1.66e6,active
Best3,1,2.04e5,1.63e5,2.08e6,1.73e6,inactive
ppk26,1,85818,85311,1.13e6,1.22e6,inactive
ppk26,2,2.92e5,3.62e5,1.06e6,9.21e5,inactive
EndoG,1,4.39e5,3.68e5,4.05e6,3.59e6,inactive
EndoG,2,6.94e5,8.05e5,1.19e6,1.22e6,inactive
EndoG,3,2.58e5,4.46e5,6.26e5,6.02e5,inactive
CG8778,1,2.22e5,1.75e5,1.60e6,1.42e6,inactive
slpr,1,1.07e5,80684,5.02e5,5.04e5,inactive
slpr,2,4.19e5,3.62e5,1.07e6,8.80e5,inactive
slpr,3,,,,,inactive
slpr,4,,,,,inactive
CG5850,1,6.46e5,9.40e5,1.33e6,1.70e6,inactive
Rif1,1,2.34e5,2.62e5,4.42e5,4.66e5,inactive
DEF8,1,9.73e5,8.78e5,1.78e6,1.89e6,inactive
Cpr65Eb,1,1.69e5,1.95e5,1.76e6,2.36e6,inactive
Cpr65Eb,2,9.63e5,1.04e6,1.15e6,1.20e6,inactive
Mis12,1,1.41e5,1.70e5,1.97e6,1.86e6,inactive
Tom20,1,55480,93289,9.09e5,6.30e5,inactive
CG32650,1,60557,64560,7.51e5,7.67e5,inactive
CG1368,1,1.12e5,81951,6.51e5,3.86e5,inactive
CG1368,2,8.04e5,9.62e5,1.59e6,1.51e6,inactive
CG1368,3,9.87e5,1.03e6,2.05e6,2.12e6,inactive
CG17977,1,3.89e5,4.23e5,2.41e6,2.08e6,inactive
Ptp36E,1,2.27e5,1.68e5,2.27e6,1.37e6,inactive
Ptp36E,2,,,,,inactive
Ptp36E,3,,,,,inactive
Mbs,1,2.81e5,1.37e5,7.16e5,3.57e5,inactive
Mbs,2,68134,66239,7.43e5,4.35e5,inactive
Mbs,3,3.44e5,5.65e5,1.41e6,1.70e6,active
Mbs,4,3.88e5,4.88e5,5.49e5,5.59e5,inactive
CG13510,1,3.75e5,3.57e5,2.46e6,1.72e6,inactive
CG4465,1,2.86e5,2.32e5,3.07e6,2.95e6,inactive
grsm,1,1.59e5,1.97e5,2.47e6,2.83e6,inactive
grsm,2,1.12e5,1.55e5,1.77e6,2.25e6,inactive
CG12376,1,8.46e5,7.56e5,2.26e6,1.94e6,inactive
CG12376,2,3.46e5,4.20e5,1.13e6,1.13e6,inactive
Vha16-3,1,3.37e5,2.43e5,3.49e6,2.77e6,inactive
Vha16-3,2,3.36e5,2.77e5,1.10e6,5.92e5,inactive
EbpIII,1,5.54e5,6.76e5,1.54e6,1.73e6,inactive
CG15464 (retired record),1,4.46e5,5.34e5,2.18e6,3.06e6,inactive
CG15464 (retired record),2,1.22e6,9.85e5,2.72e6,2.00e6,inactive
CG17734,1,5.35e5,5.86e5,1.60e6,1.95e6,inactive
CG17734,2,7.24e5,7.91e5,7.95e5,1.13e6,inactive
CG31388,1,34276,87889,3.71e5,4.42e5,inactive
CG14963,1,70930,53022,7.33e5,9.28e5,inactive
